Drawing on publication PMC6371491, this text covers binding for one substance.

Amino acid sequences for entries named in this document (tags omitted).
UniProt P60842: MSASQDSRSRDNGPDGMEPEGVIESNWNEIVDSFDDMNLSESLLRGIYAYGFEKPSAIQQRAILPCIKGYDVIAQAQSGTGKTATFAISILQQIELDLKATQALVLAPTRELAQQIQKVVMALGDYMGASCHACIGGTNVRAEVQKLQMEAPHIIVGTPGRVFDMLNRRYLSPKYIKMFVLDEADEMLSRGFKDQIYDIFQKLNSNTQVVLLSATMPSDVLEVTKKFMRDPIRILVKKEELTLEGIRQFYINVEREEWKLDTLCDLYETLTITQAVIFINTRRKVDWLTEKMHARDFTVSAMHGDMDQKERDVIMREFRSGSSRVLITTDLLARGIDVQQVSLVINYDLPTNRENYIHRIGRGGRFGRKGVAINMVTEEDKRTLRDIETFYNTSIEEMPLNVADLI

This experiment has as its target T1, Phosphoglycerate dehydrogenase (PHGDH), endogenous (human (endogenous in PANC-1 and AsPC-1)) (UniProt O43175).
T1 sequence: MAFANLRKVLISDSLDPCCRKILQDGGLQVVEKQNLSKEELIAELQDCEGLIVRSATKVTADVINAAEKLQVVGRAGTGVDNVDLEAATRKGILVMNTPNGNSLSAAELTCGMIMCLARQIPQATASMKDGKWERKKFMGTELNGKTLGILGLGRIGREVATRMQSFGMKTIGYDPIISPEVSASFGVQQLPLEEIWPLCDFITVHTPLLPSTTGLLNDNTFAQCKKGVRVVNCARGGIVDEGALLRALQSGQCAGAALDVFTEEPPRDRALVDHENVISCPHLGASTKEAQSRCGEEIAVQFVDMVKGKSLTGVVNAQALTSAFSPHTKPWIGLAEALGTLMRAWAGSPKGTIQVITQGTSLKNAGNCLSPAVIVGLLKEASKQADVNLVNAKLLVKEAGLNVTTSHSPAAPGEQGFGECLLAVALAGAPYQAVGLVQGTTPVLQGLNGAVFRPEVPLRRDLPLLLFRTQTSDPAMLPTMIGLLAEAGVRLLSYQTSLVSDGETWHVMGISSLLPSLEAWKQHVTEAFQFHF
As to the kind of experiment: affinity purification with mass spectrometry; co-immunoprecipitation of PHGDH and mass spectrometry of the precipitate; details in Figure S4A, B and Table S1.

Results are given in words; binding and its absence hold for the method and conditions named. In cells and extracts the contact can be indirect. These calls come from enrichment with a bait or labelling near it, and not all partners need be listed.

As to “eukaryotic translation initiation factor 4A1 (eIF4A1), endogenous (from UniProt P60842 1-406)”, the binding entry is “binds”.
